Here are results for 18 molecules from ChEMBL document CHEMBL4513148, “CO-ADD screening of Stellenbosch University (South Africa) compounds”.

Structures are written as SMILES. The list shows a part of the results. Entries with a potency or affinity are not part of this list.

The subject of the assay is Pseudomonas aeruginosa. The note with it: Concentration 32 ug.mL-1; ASSAY_TEST Inhibition of Bacterial Growth; detection method Absorption (OD600); MEDIA CAMHB; plate type 384well; NBS; CORNING #3640; time 18 hr.
Turning to `CC(C)(CO)[C@H](O)C(=O)NCCCc1cn(C[C@H]2O[C@@H](n3ccc(N)nc3=O)[C@H](O)[C@@H]2O)nn1`, the Inhibition was found to be 41.93%.

The molecule `CC(C)(C)C(O)C(=O)NCCC(=O)NCCc1ccccc1` (stereo not drawn) had an Inhibition of 40.95%.

`C#CCNC(=O)[C@H](O)C(C)(C)CO` returned an Inhibition of 33.47%.

`CC(CC(=O)NCCc1ccccc1)NC(=O)[C@H](O)C(C)(C)CO` (stereo partly drawn): the Inhibition is listed as 72.5%.

Molecule `CC(C)(CO)[C@H](O)C(=O)NCCC(=O)NCc1cn(C[C@H]2O[C@@H](n3ccc(N)nc3=O)[C@H](O)[C@@H]2O)nn1` returned an Inhibition of 20.42%.

`CCCCCCCNC(=S)CCNC(=O)[C@H](O)C(C)(C)CO` had an Inhibition of 22.82%.

As for `CCCCCCCNC(=O)CCNC(=O)C(O)C(C)(C)C` (stereo not drawn), the Inhibition is given as 49.91%.

For the molecule `CC(C)(CO)[C@H](O)C(=O)NCc1cn(C[C@H]2O[C@@H](n3ccc(N)nc3=O)[C@H](O)[C@@H]2O)nn1`, the Inhibition is given as 37.59%.

With `CC(C)(CN)C(O)C(=O)NCCC(=O)NCCc1ccccc1` (stereo not drawn), the Inhibition was 51.6%.

`CC(C)(CO)[C@H](O)C(=O)NCCc1cn(C[C@H]2O[C@@H](n3ccc(N)nc3=O)[C@H](O)[C@@H]2O)nn1` had an Inhibition of 21.65%.

For `CC(C)(CO)[C@@H](O)C(=O)NCCC(=O)NNCc1ccccc1`, the Inhibition was found to be 44.24%.

Regarding `CC(C)(CO)C(O)C(=O)NCCCOP(=O)(O)OCC1OC(n2ccc(N)nc2=O)C(O)C1O` (stereo not drawn), the Inhibition is 20.74%.

The molecule `CC(C)(CO)[C@@H](O)C(=O)NCCC(=S)NCCc1ccccc1` registered an Inhibition of 38.53%.

Molecule `CC(C)(CO)[C@H](O)C(=O)NCCC(=O)OCc1cn(C[C@H]2O[C@@H](n3ccc(N)nc3=O)[C@H](O)[C@@H]2O)nn1` yielded an Inhibition of 28.99%.

Molecule `CC(C)(CO)[C@@H](O)C(=O)N/C=C/C(=O)NCCc1ccccc1` returned an Inhibition of 39.92%.

Regarding `CCCCCCNNC(=O)CCNC(=O)[C@H](O)C(C)(C)CO`, the Inhibition stood at 23.59%.

`CCCCCCCNS(=O)(=O)CCNC(=O)[C@H](O)C(C)(C)CO` registered an Inhibition of 28.14%.

The molecule `CC(C)(COP(=O)(O)O)[C@@H](O)C(=O)NCCC(=O)NCCc1ccccc1` had an Inhibition of 35.19%.

What is called Inhibition is the share of the control response that was lost under treatment.
